PubChem BioAssay AID1159578, Peter MacCallum Cancer Centre | 2015
The deposit covers about 18,000 reagents; this is a random part of them. Over the whole deposit, about 1,030 (5.7%) were called active. 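Inactive calls also include pools with fewer than 3300 nuclei, whose migration was not assessed.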 Raw values are not corrected between plates.

Purpose: 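Genome-wide hunt for genes controlling movement of lymphatic endothelial cells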 (primary screen)
System: human lymphatic endothelial cells
Reagent: siRNA pool against human genes, 40 nM
Timing: 48 h after transfection
Measured: 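High-content imaging of dye-stained cells in a scratch assay measures filled wound area and nuclei per well; duplicate means given as ratio to mock and robust z-score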
Direction: migration robust z-score: higher = faster migration into the scratch; migration relative to mock: higher = more scratch area covered than mock; nuclei per well: higher = more cells in the well
Active means: 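Migration changed when robust z exceeds 2 or falls below -2 and mean nuclei number is at least 3300; otherwise not called changed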
Calls: active = migration changed; inactive = no migration change, or too few cells

gene knocked down,migration robust z-score,migration class with cell-count check,migration relative to mock,"nuclei per well, duplicate mean",call
METTL25 (methyltransferase like 25),0.26,migration z between -2 and 2; enough cells,0.95,6508,inactive
NHERF1 (NHERF family PDZ scaffold protein 1),1.1,migration z between -2 and 2; enough cells,1.17,5952,inactive
CCK (cholecystokinin),-0.18,migration z between -2 and 2; enough cells,0.84,5746,inactive
TOX4 (TOX high mobility group box family member 4),0.18,migration z between -2 and 2; enough cells,0.93,5014,inactive
NATD1 (N-acetyltransferase domain containing 1),-0.4,migration z between -2 and 2; enough cells,0.78,5976,inactive
KLHL7 (kelch like family member 7),1.4,migration z between -2 and 2; enough cells,1.25,6178,inactive
VCF2 (VCP nuclear cofactor family member 2),-1.99,under 3300 nuclei; migration not judged,0.36,3135,inactive
GCSAM (germinal center associated signaling and motility),-0.25,migration z between -2 and 2; enough cells,0.82,6330,inactive
CIB1 (calcium and integrin binding 1),-3.58,migration z below -2; enough cells,0.12,4454,active
SPATA12 (spermatogenesis associated 12),0.16,migration z between -2 and 2; enough cells,0.92,4964,inactive
HMX2 (H6 family homeobox 2),1.04,migration z between -2 and 2; enough cells,1.16,5954,inactive
MCAT,-0.45,migration z between -2 and 2; enough cells,0.77,6084,inactive
AMACR (alpha-methylacyl-CoA racemase),1.29,migration z between -2 and 2; enough cells,1.05,5532,inactive
ARHGEF25 (Rho guanine nucleotide exchange factor 25),-0.05,migration z between -2 and 2; enough cells,0.87,5666,inactive
KRT222 (keratin 222),-0.69,migration z between -2 and 2; enough cells,0.7,5316,inactive
PCDH17 (protocadherin 17),1.06,migration z between -2 and 2; enough cells,1.17,6380,inactive

The list goes on (4 carried over from the part before).
gene knocked down,migration robust z-score,migration class with cell-count check,migration relative to mock,"nuclei per well, duplicate mean",call
AMACR (alpha-methylacyl-CoA racemase),1.29,migration z between -2 and 2; enough cells,1.05,5532,inactive
ARHGEF25 (Rho guanine nucleotide exchange factor 25),-0.05,migration z between -2 and 2; enough cells,0.87,5666,inactive
KRT222 (keratin 222),-0.69,migration z between -2 and 2; enough cells,0.7,5316,inactive
PCDH17 (protocadherin 17),1.06,migration z between -2 and 2; enough cells,1.17,6380,inactive
PAK5 (p21 (RAC1) activated kinase 5),-0.75,migration z between -2 and 2; enough cells,0.66,5342,inactive
ITPKA (inositol-trisphosphate 3-kinase A),-2.51,migration z below -2; enough cells,0.32,4050,active
DHRS4L1 (dehydrogenase/reductase 4 like 1 (pseudogene)),-0.02,migration z between -2 and 2; enough cells,0.88,5795,inactive
"RAB11B (RAB11B, member RAS oncogene family)",-0.7,migration z between -2 and 2; enough cells,0.67,4424,inactive
DPAGT1 (dolichyl-phosphate N-acetylglucosaminephosphotransferase 1),2.64,migration z above 2; enough cells,1.31,4452,active
RNASEH2B (ribonuclease H2 subunit B),-0.24,migration z between -2 and 2; enough cells,0.82,6077,inactive
STS (steroid sulfatase),-0.72,migration z between -2 and 2; enough cells,0.66,5070,inactive
XKR9 (XK related 9),-0.38,migration z between -2 and 2; enough cells,0.78,5266,inactive
CYP1A2 (cytochrome P450 family 1 subfamily A member 2),0.29,migration z between -2 and 2; enough cells,0.86,4824,inactive
YOD1 (YOD1 deubiquitinase),0.12,migration z between -2 and 2; enough cells,0.92,5398,inactive
FYB1 (FYN binding protein 1),0.44,migration z between -2 and 2; enough cells,1,6626,inactive
THEM4 (thioesterase superfamily member 4),-0.52,migration z between -2 and 2; enough cells,0.75,5559,inactive
PCGF5 (polycomb group ring finger 5),-0.32,migration z between -2 and 2; enough cells,0.74,6246,inactive
ZNF611 (zinc finger protein 611),0.12,migration z between -2 and 2; enough cells,0.92,5299,inactive
GTF2F2 (general transcription factor IIF subunit 2),0.52,migration z between -2 and 2; enough cells,0.9,5225,inactive
LMO7 (LIM domain 7),-0.21,migration z between -2 and 2; enough cells,0.76,5087,inactive
SHANK1 (SH3 and multiple ankyrin repeat domains 1),-0.16,migration z between -2 and 2; enough cells,0.84,6318,inactive
FN1 (fibronectin 1),-0.57,migration z between -2 and 2; enough cells,0.7,5983,inactive
TPTE (transmembrane phosphatase with tensin homology),1.43,migration z between -2 and 2; enough cells,1.08,6501,inactive
NFAT5 (nuclear factor of activated T cells 5),-0.13,under 3300 nuclei; migration not judged,0.78,3227,inactive
GALNT16 (polypeptide N-acetylgalactosaminyltransferase 16),-0.54,migration z between -2 and 2; enough cells,0.7,6604,inactive
JAK3 (Janus kinase 3),-0.05,migration z between -2 and 2; enough cells,0.8,3799,inactive
TAS2R40 (taste 2 receptor member 40),-0.39,migration z between -2 and 2; enough cells,0.78,6029,inactive
